{"source": "paper PMC4446444", "about": "“Stable complex formation of CENP-B with the CENP-A nucleosome”", "molecular_target": "T1, His6-CENP-B DBD (Homo sapiens) (UniProt P07199)", "T1 sequence (looked up)": "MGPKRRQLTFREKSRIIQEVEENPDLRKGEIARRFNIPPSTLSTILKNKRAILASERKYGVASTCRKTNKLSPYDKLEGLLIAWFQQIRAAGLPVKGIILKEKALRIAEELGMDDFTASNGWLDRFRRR", "assay": "pull-down", "details": "preformed His6-DBD-DNA complex on Ni-NTA, used to capture CENP-A-H4; pull-down: 20 mM Tris-HCl pH 8.0, 300 mM NaCl, 60 mM imidazole, 0.3% Tween-20, 0.01 ug/ul BSA, 4 C, 60 min; recombinant protein; residues 1-129; protein details: His6", "note": "Construct, isoform or probe ends are uncertain for at least one entry. At least one verdict rests on a figure or table, not on a statement of the authors. Tags and fusion partners may be left off the protein sequences shown."}
{"sequence": "GCCTTCGTTGGAAACGGGATT (double strand) [21-bp CENP-B box DNA]", "values": [{"measurement": "binding result", "value": "binds"}]}
